Taken from: PubChem BioAssay AID1671195 (Yale University, 2021)

Aim: 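Knockdowns that increase or decrease uptake of fluorescent LDL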 (primary screen)
Cell system: human Huh7 hepatoma cells
Reagents: siRNA pool against human genes, 18 nM
Timing: about 2 to 2.5 days of knockdown, then 8 h LDL uptake
Challenge: DiI-labelled LDL at 30 µg/ml for 8 h, in lipoprotein-deficient serum medium
Measured: 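Fluorescent LDL signal imaged in cells, scaled to the plate median, robust z-score for each replicate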
Scale: robust z-score: higher = more LDL uptake after knockdown
Rule for the call: 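Active when two or more replicates show a robust z-score above 2 or below -2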
The whole screen tested about 22,000 reagents; this is a part drawn at random. Of all reagents, about 1,510 (6.9%) got an active call. 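Active includes knockdowns raising or lowering LDL uptake; positive z-scores mean more uptake, negative mean less.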 A number with no mark means an inactive call. Reagents against one gene are numbered here.

The opening 2 entries, to show the layout:
ELAC2 (GeneID 60528): robust z-score, replicate 1 = -0.382; robust z-score, replicate 2 = -0.0646; robust z-score, replicate 3 = -0.578
LOC441993 (retired record) (GeneID 441993): robust z-score, replicate 1 = -0.428; robust z-score, replicate 2 = -0.674; robust z-score, replicate 3 = -0.775

The listing, from the start:
ELAC2 (GeneID 60528): robust z-score, replicate 1 = -0.382; robust z-score, replicate 2 = -0.0646; robust z-score, replicate 3 = -0.578
LOC441993 (retired record) (GeneID 441993): robust z-score, replicate 1 = -0.428; robust z-score, replicate 2 = -0.674; robust z-score, replicate 3 = -0.775
WRN (GeneID 7486): robust z-score, replicate 1 = -1.21; robust z-score, replicate 2 = -0.198; robust z-score, replicate 3 = -0.188
ZNF493 (GeneID 284443) #1: robust z-score, replicate 1 = -0.124; robust z-score, replicate 2 = 1.39; robust z-score, replicate 3 = 1.35
ZNF493 (GeneID 284443) #2: robust z-score, replicate 1 = -0.0506; robust z-score, replicate 2 = -0.667; robust z-score, replicate 3 = -0.122
MTFR1L (GeneID 56181): robust z-score, replicate 1 = 0.0166; robust z-score, replicate 2 = -1.45; robust z-score, replicate 3 = 2.28
CYB5R3 (GeneID 1727): robust z-score, replicate 1 = -1.63; robust z-score, replicate 2 = -0.939; robust z-score, replicate 3 = -1.67
MANBAL (GeneID 63905): robust z-score, replicate 1 = 0.502; robust z-score, replicate 2 = 0.798; robust z-score, replicate 3 = 0.685
ZIC2 (GeneID 7546): robust z-score, replicate 1 = -0.986; robust z-score, replicate 2 = -1.23; robust z-score, replicate 3 = -1.12
HR (GeneID 55806): robust z-score, replicate 1 = -1.74; robust z-score, replicate 2 = -1.97; robust z-score, replicate 3 = -1.54
PODXL2 (GeneID 50512): robust z-score, replicate 1 = -0.955; robust z-score, replicate 2 = -0.33; robust z-score, replicate 3 = -1.34
SPANXN4 (GeneID 441525): robust z-score, replicate 1 = -0.326; robust z-score, replicate 2 = -0.753; robust z-score, replicate 3 = -0.582
HTATIP2 (GeneID 10553): robust z-score, replicate 1 = -0.0672; robust z-score, replicate 2 = -0.229; robust z-score, replicate 3 = -0.619
OR5V1 (GeneID 81696): robust z-score, replicate 1 = -2.54 (active); robust z-score, replicate 2 = -2.37; robust z-score, replicate 3 = -2.3
RWDD4 (GeneID 201965): robust z-score, replicate 1 = -0.51; robust z-score, replicate 2 = -0.517; robust z-score, replicate 3 = -0.845
LOC388298 (retired record) (GeneID 388298): robust z-score, replicate 1 = -0.982; robust z-score, replicate 2 = -1.02; robust z-score, replicate 3 = -1.1
SCUBE1 (GeneID 80274): robust z-score, replicate 1 = 0.259; robust z-score, replicate 2 = 0.395; robust z-score, replicate 3 = -0.404
MFN1 (GeneID 55669): robust z-score, replicate 1 = 0.252; robust z-score, replicate 2 = -0.443; robust z-score, replicate 3 = 0.222
CTSF (GeneID 8722): robust z-score, replicate 1 = 0.0927; robust z-score, replicate 2 = -0.366; robust z-score, replicate 3 = 0.341
LOC401499 (retired record) (GeneID 401499): robust z-score, replicate 1 = -0.207; robust z-score, replicate 2 = -0.644; robust z-score, replicate 3 = -0.375
TIPE2 (GeneID 79626): robust z-score, replicate 1 = 0.288; robust z-score, replicate 2 = 0.888; robust z-score, replicate 3 = -0.066
DNTT (GeneID 1791): robust z-score, replicate 1 = -0.059; robust z-score, replicate 2 = -0.0895; robust z-score, replicate 3 = -0.0682
GNRH1 (GeneID 2796): robust z-score, replicate 1 = -0.595; robust z-score, replicate 2 = -0.0359; robust z-score, replicate 3 = -1.96
LINC03086 (GeneID 388780): robust z-score, replicate 1 = -0.126; robust z-score, replicate 2 = -0.232; robust z-score, replicate 3 = 0.091
RNASE7 (GeneID 84659): robust z-score, replicate 1 = -0.351; robust z-score, replicate 2 = -0.729; robust z-score, replicate 3 = -0.512
MTCH1 (GeneID 23787): robust z-score, replicate 1 = 0.742; robust z-score, replicate 2 = 1.34; robust z-score, replicate 3 = 0.876
TIGAR (GeneID 57103): robust z-score, replicate 1 = -0.702; robust z-score, replicate 2 = -1.27; robust z-score, replicate 3 = -0.419
TNFSF14 (GeneID 8740): robust z-score, replicate 1 = 0.118; robust z-score, replicate 2 = 3.11; robust z-score, replicate 3 = 0.986
KLHDC7B (GeneID 113730): robust z-score, replicate 1 = -0.627; robust z-score, replicate 2 = 0.62; robust z-score, replicate 3 = 0.143
KCNH7 (GeneID 90134): robust z-score, replicate 1 = 2.58 (active); robust z-score, replicate 2 = 2.14; robust z-score, replicate 3 = 2.79
